The values below come from article PMC11196597.

No constants are given. Whether binding was seen depends on the method and setting. Binding seen in cells or lysates may run through a third protein. For part of these data: A result given as binding can be weak or reduced; the word gives no strength. Tags and fused reporters may be left off the sequences shown.

Common to all, as to assay: co-IP; mapping of VHL regions: full-length Flag-VHL or Flag-tagged acidic domain, β-domain or α-domain transiently transfected into HEK293T cells; form of UBE3B not given
The target of assay [1] is Flag-tagged α-domain of VHL (human).
Assay [2] concerns the target Flag-tagged acidic domain of VHL (human).
Assay [3] addresses Flag-tagged β-domain of VHL (human).

B1: Myc-UBE3B, full-length (FL) (protein, UniProt Q7Z3V4 1-1068)
chain: MFTLSQTSRAWFIDRARQAREERLVQKERERAAVVIQAHVRSFLCRSRLQRDIRREIDDFFKADDPESTKRSALCIFKIARKLLFLFRIKEDNERFEKLCRSILSSMDAENEPKVWYVSLACSKDLTLLWIQQIKNILWYCCDFLKQLKPEILQDSRLITLYLTMLVTFTDTSTWKILRGKGESLRPAMNHICANIMGHLNQHGFYSVLQILLTRGLARPRPCLSKGTLTAAFSLALRPVIAAQFSDNLIRPFLIHIMSVPALVTHLSTVTPERLTVLESHDMLRKFIIFLRDQDRCRDVCESLEGCHTLCLMGNLLHLGSLSPRVLEEETDGFVSLLTQTLCYCRKYVSQKKSNLTHWHPVLGWFSQSVDYGLNESMHLITKQLQFLWGVPLIRIFFCDILSKKLLESQEPAHAQPASPQNVLPVKSLLKRAFQKSASVRNILRPVGGKRVDSAEVQKVCNICVLYQTSLTTLTQIRLQILTGLTYLDDLLPKLWAFICELGPHGGLKLFLECLNNDTEESKQLLAMLMLFCDCSRHLITILDDIEVYEEQISFKLEELVTISSFLNSFVFKMIWDGIVENAKGETLELFQSVHGWLMVLYERDCRRRFTPEDHWLRKDLKPSVLFQELDRDRKRAQLILQYIPHVIPHKNRVLLFRTMVTKEKEKLGLVETSSASPHVTHITIRRSRMLEDGYEQLRQLSQHAMKGVIRVKFVNDLGVDEAGIDQDGVFKEFLEEIIKRVFDPALNLFKTTSGDERLYPSPTSYIHENYLQLFEFVGKMLGKAVYEGIVVDVPFASFFLSQLLGHHHSVFYSSVDELPSLDSEFYKNLTSIKRYDGDITDLGLTLSYDEDVMGQLVCHELIPGGKTIPVTNENKISYIHLMAHFRMHTQIKNQTAALISGFRSIIKPEWIRMFSTPELQRLISGDNAEIDLEDLKKHTVYYGGFHGSHRVIIWLWDILASDFTPDERAMFLKFVTSCSRPPLLGFAYLKPPFSIRCVEVSDDQDTGDTLGSVLRGFFTIRKREPGGRLPTSSTCFNLLKLPNYSKKSVLREKLRYAISMNTGFELS
For B1, the binding result in assay [1] is given as “no binding”; in assay [2], “no binding”; in assay [3], “binds”.
